Assay results from patent US6660751B1, “Sulfonamide derivatives as 5-HT7 receptor antagonists” (SmithKline Beecham p.l.c., priority 1999, dated 2003).
Some of these results come from one statement about several compounds together.

Protein sequences, listed by entry. Tags and fused reporters are not part of them.
UniProt P34969, whole entry: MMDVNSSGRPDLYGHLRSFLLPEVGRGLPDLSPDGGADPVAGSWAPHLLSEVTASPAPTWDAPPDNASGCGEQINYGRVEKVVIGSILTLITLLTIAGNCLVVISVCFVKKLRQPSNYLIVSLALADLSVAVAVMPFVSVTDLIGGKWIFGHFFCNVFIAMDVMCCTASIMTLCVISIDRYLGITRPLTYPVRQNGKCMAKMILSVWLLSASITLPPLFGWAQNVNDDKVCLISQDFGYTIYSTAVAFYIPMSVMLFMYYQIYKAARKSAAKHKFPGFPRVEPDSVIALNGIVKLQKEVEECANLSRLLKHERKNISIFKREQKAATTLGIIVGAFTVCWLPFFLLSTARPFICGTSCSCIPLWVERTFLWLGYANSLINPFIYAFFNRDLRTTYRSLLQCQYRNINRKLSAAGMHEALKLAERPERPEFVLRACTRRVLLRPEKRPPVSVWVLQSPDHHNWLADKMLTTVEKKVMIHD

target: T1, Human 5-HT7 Receptor (Homo sapiens, UniProt P34969); assay: [3H]-5-Carboxamidotryptamine binding to human 5-HT7 receptor clones expressed in 293 cells in vitro; conditions: method of WO 97/29097
T1 construct: expressed in transfected cells; host or cells: 293 cells

SMILES	pKi
Cc1cc(S(=O)(=O)N(CCN2CCC(c3nc4cc(F)ccc4[nH]3)CC2)C(C)C)c(C)cc1Cl [Example E31, 4-Chloro-2,5-dimethyl-N-(2-(4-(5fluoro-1H-benzimidazol-2-yl)-piperidin-1-yl)-ethyl)-N-isopropyl Benzene Sulfonamide]	> 8.5
CN(CCN1CCC(c2nc3cc(F)ccc3[nH]2)CC1)S(=O)(=O)c1cc(Cl)c(Cl)cc1Cl [Example E28]	> 8.5
CN(CCN1CCC(c2nc3cc(F)ccc3[nH]2)CC1)S(=O)(=O)c1cc(Cl)c(Cl)cc1C(F)(F)F [Example E38, 4,5-Dichloro-N-(2-(4-(5-fluoro-1H-benzimidazol-2-yl)-piperidin-1-yl)-ethyl)-N-methyl-2-trifluoromethyl-benzenesulfonamide]	> 8.5
CCN(CCN1CCC(c2nc3cc(F)ccc3[nH]2)CC1)S(=O)(=O)c1cc(Cl)c(Cl)cc1Cl [Example E29]	> 8.5
CC(C)N(CCN1CCC(c2nc3cc(F)ccc3[nH]2)CC1)S(=O)(=O)c1cc(Cl)c(Cl)cc1Cl [Example E30, 2,4,5-Trichloro-N-(2-(4-(5-Fluoro-1H-benzimidazol-2-yl)piperidin-1-yl)-ethyl)-N-isopropyl Benzene Sulfonamide]	> 8.5
Cc1cc(S(=O)(=O)N(C)CCN2CCC(c3nc4cc(F)ccc4[nH]3)CC2)c(Cl)cc1Cl [Example E37]	> 8.5
